Measurements published in PMC9632837.

Legend:
Test in all cases: two-hybrid; Matchmaker Gold Yeast Two-Hybrid System; pGBKT7 baits and pGADT7 preys co-transformed into Y2HGold cells; transformants from SD-Leu-Trp restreaked onto SD-Leu-Trp-His-Ade plates
[1] = biological target: LIN-2A lacking the PDZ domain (C. elegans) (UniProt P54936)
[2] = biological target: FRM-3 (FRM-3/FARP), full length (C. elegans)
[3] = biological target: LIN-2A lacking the SH3 domain (C. elegans) (UniProt P54936)
[4] = biological target: FERM domain of FRM-3 (C. elegans)

| Binder | binding [1] | binding [2] | binding [3] | binding [4] |
| --- | --- | --- | --- | --- |
| ACR-16 second cytoplasmic loop, TM3-4 (aa315-472) (domain or fragment, UniProt P48180 315-472) NLHYRTPETHDMGPWTRNLLLYWIPWILRMKRPGHNLTYASLPSLFSTKPNRHSESLIRNIKDNEHSLSRANSFDADCRLNQYIMTQSVSNGLTSLGSIPSTMISSNGTTTDVSQQATLLILHRIYHELKIVTKRMIEGDKEEQACNNWKFAAMVVDR | binds | no binding | no binding | – |
| UNC-29 second cytoplasmic loop, TM3-4 (aa318-445) (domain or fragment, UniProt P48181 318-445) YFRGPRTHRMPQWVRVVFLQFLPKLVCMKRPKSASERSAVRSGMAQLPGVGQFTLSPSAHHPLCPSADDRTTTIRNTASNETSAYYPLSTDALRAIDAIEYITEHLKRDEQHKSFRDDWKYVAMIIDR | binds | no binding | no binding | – |
| LIN-2A (LIN-2/CASK, long isoform), full length (protein, UniProt P54936-1 1-961) MRELDPDESNLLLDEQLSIRDVIEQGPFSNVYRILHGPSNRKFLLRSINLNLFRQHTGLGFEEIDEEIRICQNLQHPYICRLEKTINSVHYRHIIFENMEGNDICFEIVQRASNGFVFSEYVVSHYTRQLLDALDYCHTRKIVHRDVRPHNLVLASKDTSAPLKLCGFGVAKDLSEIGGSMACGRVGVPQFMAPEIVRKDRVSCSSDIWSSGVVLFLLLAGRLPFSGSTSDIYERIMQTDVDVDGYMPNISESARNLVRRMLNADPSKRISAKEALNHEWIRDKEHMASRKHMNDVIDQMRRYNESRKLKSNVLSAVNSGRFDETTPRQDTPQTAFVDGSSPGGDCCHRGESSSNDAAEPPADKDLSGAYKVLGSLDAINSLLDPNSYKPGSTTFQKIHDDGSVRNLLRLYDKIKALPCEPVVTEVDTSTLRKETLNQIDGLLGPSPEALELRQLLNSPHLASCVQALDVVVCEIRDPKNEASGSGDKEGNCVSSDPAPAYLNGGVLPLGAQRAGTSFEHFNQSAVHTSYDEEEEELYDCMSRLRLVQFQKDTQEPMGITLKVNEDGRCFVARIMHGGMIHRQATLHVGDEIREINGMSVANRSVESLQEMLRDARGQVTFKIIPSYRSAPPACEIFVRAQFDYEPSQDDLIPCPQAGIPFKTGDILQVISKDDHNWWQARFVSSFPSIGNSSNAQRSNQQQVAGLIPSPELQEWRTACLAMERSKNTCNTHCMWFNKKKKYYTTKYLQKHSALFDQLDLVTYEEVMRLSQYRRKTLVLLGAHGVGRRHIKNTLIHRHPNRFAYPIPHTTRPPRKDEVDGKHYYFVTNEQMMADIQNNEYLEYGTHEESMYGTKLETIRNIHKSGKIAILDVEPQALKVLRTAEYSPFVVFIAAPNLQGMQDPDGSLEKLLNESDVLRQAFGHLFDFIITNSDIDDTIAQLERLVEKLPAYPQWLPVTWVY | – | binds | – | binds |
| LIN-2A PDZ domain (domain or fragment, UniProt P54936-1 545-620) RLVQFQKDTQEPMGITLKVNEDGRCFVARIMHGGMIHRQATLHVGDEIREINGMSVANRSVESLQEMLRDARGQVT | – | no binding | – | no binding |
| LIN-2A SH3 domain (domain or fragment, UniProt P54936-1 633-717) ACEIFVRAQFDYEPSQDDLIPCPQAGIPFKTGDILQVISKDDHNWWQARFVSSFPSIGNSSNAQRSNQQQVAGLIPSPELQEWRT | – | no binding | – | no binding |

Results are given in words; binding and its absence hold for the method and conditions named. For part of these data: A result given as binding can be weak or reduced; the word gives no strength.
